{"source": "the supplement of paper PMC8728848", "test_in_all_cases": "glycan array binding signal (z-score within array); higher = stronger binding", "conditions_in_all_cases": "glycan notation: IUPAC condensed, linker removed", "key": {"[1]": {"biological_target": "Man(a1-2)Man(a1-3)[Man(a1-2)Man(a1-6)]Man(a1-6)[Man(a1-2)Man(a1-2)Man(a1-3)]Man(b1-4)GlcNAc(b1-4)GlcNAc", "procedure,_shortened": "(§1)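 The Consortium for Functional Glycomics database supplied 3228 glycan arrays, of which those lacking an available protein sequence were dropped. The binding signal, a within-array Z-score, was averaged across arrays of the same protein sequence and across linkers. Negative scores can be read as non-binding.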"}, "[2]": {"biological_target": "Man(a1-2)Man(a1-3)[Man(a1-6)]Man(a1-6)[Man(a1-2)Man(a1-3)]Man(b1-4)GlcNAc(b1-4)GlcNAc", "procedure,_shortened": "as §1"}, "[3]": {"biological_target": "Man(a1-2)Man(a1-6)[Man(a1-3)]Man(a1-6)[Man(a1-2)Man(a1-2)Man(a1-3)]Man", "procedure,_shortened": "as §1"}, "[4]": {"biological_target": "Man(a1-2)Man(a1-6)[Man(a1-3)]Man(a1-6)[Man(a1-2)Man(a1-2)Man(a1-3)]Man(b1-4)GlcNAc(b1-4)GlcNAc", "procedure,_shortened": "as §1"}, "Man(a1-3)[Man(a1-6)]Man": {"biological_target": "Man(a1-3)[Man(a1-6)]Man", "procedure,_shortened": "as §1"}, "[5]": {"biological_target": "Man(a1-3)[Man(a1-6)]Man(a1-6)[Man(a1-2)Man(a1-3)]Man(b1-4)GlcNAc(b1-4)GlcNAc", "procedure,_shortened": "as §1"}, "[6]": {"biological_target": "Man(a1-3)[Man(a1-6)]Man(a1-6)[Man(a1-3)]Man", "procedure,_shortened": "as §1"}, "[7]": {"biological_target": "Man(a1-3)[Man(a1-6)]Man(a1-6)[Man(a1-3)]Man(b1-4)GlcNAc(b1-4)GlcNAc", "procedure,_shortened": "as §1"}, "[8]": {"biological_target": "Man(a1-3)[Man(a1-6)]Man(b1-4)GlcNAc(b1-4)GlcNAc", "procedure,_shortened": "as §1"}, "[9]": {"biological_target": "Man(a1-3)[Man(a1-6)]Man(b1-4)GlcNAc(b1-4)[Fuc(a1-6)]GlcNAc", "procedure,_shortened": "as §1"}, "Man(a1-6)Man": {"biological_target": "Man(a1-6)Man", "procedure,_shortened": "as §1"}, "Man(b1-4)GlcNAc": {"biological_target": "Man(b1-4)GlcNAc", "procedure,_shortened": "as §1"}, "MurNAc(b1-4)GlcNAc": {"biological_target": "MurNAc(b1-4)GlcNAc", "procedure,_shortened": "as §1"}, "Neu5Ac(a2-3)Gal": {"biological_target": "Neu5Ac(a2-3)Gal", "procedure,_shortened": "as §1"}, "[10]": {"biological_target": "Neu5Ac(a2-3)Gal(b1-3)GalNAc", "procedure,_shortened": "as §1"}, "[11]": {"biological_target": "Neu5Ac(a2-3)Gal(b1-3)GalNAc(b1-3)Gal(a1-4)Gal(b1-4)Glc", "procedure,_shortened": "as §1"}, "[12]": {"biological_target": "Neu5Ac(a2-3)Gal(b1-3)GalNAc(b1-4)[Neu5Ac(a2-3)]Gal(b1-4)Glc", "procedure,_shortened": "as §1"}, "[13]": {"biological_target": "Neu5Ac(a2-3)Gal(b1-3)GalNAc(b1-4)[Neu5Ac(a2-8)Neu5Ac(a2-3)]Gal(b1-4)Glc", "procedure,_shortened": "as §1"}, "[14]": {"biological_target": "Neu5Ac(a2-3)Gal(b1-3)GalNAc6S", "procedure,_shortened": "as §1"}, "[15]": {"biological_target": "Neu5Ac(a2-3)Gal(b1-3)GlcNAc", "procedure,_shortened": "as §1"}, "[16]": {"biological_target": "Neu5Ac(a2-3)Gal(b1-3)GlcNAc(b1-2)Man", "procedure,_shortened": "as §1"}, "[17]": {"biological_target": "Neu5Ac(a2-3)Gal(b1-3)GlcNAc(b1-2)Man(a1-3)[GlcNAc(b1-4)][Neu5Ac(a2-3)Gal(b1-3)GlcNAc(b1-2)Man(a1-6)]Man(b1-4)GlcNAc(b1-4)GlcNAc", "procedure,_shortened": "as §1"}, "[18]": {"biological_target": "Neu5Ac(a2-3)Gal(b1-3)GlcNAc(b1-2)Man(a1-3)[Neu5Ac(a2-3)Gal(b1-3)GlcNAc(b1-2)Man(a1-6)]Man(b1-4)GlcNAc(b1-4)GlcNAc", "procedure,_shortened": "as §1"}, "[19]": {"biological_target": "Neu5Ac(a2-3)Gal(b1-3)GlcNAc(b1-3)Gal(b1-3)GlcNAc", "procedure,_shortened": "as §1"}, "[20]": {"biological_target": "Neu5Ac(a2-3)Gal(b1-3)GlcNAc(b1-3)Gal(b1-4)GlcNAc", "procedure,_shortened": "as §1"}, "[21]": {"biological_target": "Neu5Ac(a2-3)Gal(b1-3)GlcNAc(b1-3)GalNAc", "procedure,_shortened": "as §1"}, "[22]": {"biological_target": "Neu5Ac(a2-3)Gal(b1-3)GlcNAc(b1-4)Gal(b1-4)Glc", "procedure,_shortened": "as §1"}, "[23]": {"biological_target": "Neu5Ac(a2-3)Gal(b1-3)GlcNAc(b1-6)GalNAc", "procedure,_shortened": "as §1"}, "[24]": {"biological_target": "Neu5Ac(a2-3)Gal(b1-3)GlcNAc6S", "procedure,_shortened": "as §1"}, "[25]": {"biological_target": "Neu5Ac(a2-3)Gal(b1-3)[Fuc(a1-4)]GlcNAc", "procedure,_shortened": "as §1"}}, "note": "This is one part of the list."}
{"binder": "Blon2355mut (Bifidobacterium longum) (protein) MVQEPTLEWHVIPEPTNVEPLVGTCSLPLSGTVVEQRGADDAEAVFARQLVDDIKRVCGGRWQVASGEVQREVTLRTSPSLDDWSYVLEVSPDGVVITGSGFEGVRDGVQTLRQIIRQIGLTIPCMVIRDRPAFSTRGYYLDVTRGRVPSMAWLKSWVDRLCFYKYNQFQLYIEHTFQFNGLSEVWRGADPLTSSDILELDSYCAARGIELVPSVSTFGHHYTALRTRQLRDLGEFPEDADRPFSLIERMTHHTLNITDERSYEFSTSLIDELMPLFRSRKFNICANETFDLGKGRSKQESAKRGVGAMYADFVERLCRHVDDRGHDVMVWADVALEHPEIIDTLPKNITWLNWQYEPNVDDGTTAALADAGATQMVCPAVWCWNALIPRIDDAWNNITRMARHGRAHDVSGMLVTDWGDFGHVNDPRMSVPGMIFGAQQSWNPDAELSEVDMLSRISTIEYGDHTGSVVGALRGASAKGGFSWSDLVTYLELDDGRGGCNTEIVRVMGCLEAYRNDLPQSGQARLADARVSMLRTLRDSILAGRELNGKLDDAAKDITQLLRVAGDPSSAAVWSLAIDGQRLLNRVGLALLAAHGVVRQDEAGIDAAKLADELECWTEQYSRLWHEVSRQSELARIQHVVWRAADVLRSI", "values": [{"measurement": "glycan array binding signal (z-score)", "setting": "[1]", "result": -0.539}, {"measurement": "glycan array binding signal (z-score)", "setting": "[2]", "result": -0.875}, {"measurement": "glycan array binding signal (z-score)", "setting": "[3]", "result": -1.64}, {"measurement": "glycan array binding signal (z-score)", "setting": "[4]", "result": 0.149}, {"measurement": "glycan array binding signal (z-score)", "setting": "Man(a1-3)[Man(a1-6)]Man", "result": -0.703}, {"measurement": "glycan array binding signal (z-score)", "setting": "[5]", "result": 0.814}, {"measurement": "glycan array binding signal (z-score)", "setting": "[6]", "result": 1.3}, {"measurement": "glycan array binding signal (z-score)", "setting": "[7]", "result": -0.833}, {"measurement": "glycan array binding signal (z-score)", "setting": "[8]", "result": -0.047}, {"measurement": "glycan array binding signal (z-score)", "setting": "[9]", "result": -0.822}, {"measurement": "glycan array binding signal (z-score)", "setting": "Man(a1-6)Man", "result": -0.09}, {"measurement": "glycan array binding signal (z-score)", "setting": "Man(b1-4)GlcNAc", "result": 0.643}, {"measurement": "glycan array binding signal (z-score)", "setting": "MurNAc(b1-4)GlcNAc", "result": -0.276}, {"measurement": "glycan array binding signal (z-score)", "setting": "Neu5Ac(a2-3)Gal", "result": -1.03}, {"measurement": "glycan array binding signal (z-score)", "setting": "[10]", "result": -0.401}, {"measurement": "glycan array binding signal (z-score)", "setting": "[11]", "result": -0.213}, {"measurement": "glycan array binding signal (z-score)", "setting": "[12]", "result": 0.121}, {"measurement": "glycan array binding signal (z-score)", "setting": "[13]", "result": -0.844}, {"measurement": "glycan array binding signal (z-score)", "setting": "[14]", "result": -0.09}, {"measurement": "glycan array binding signal (z-score)", "setting": "[15]", "result": -0.842}, {"measurement": "glycan array binding signal (z-score)", "setting": "[16]", "result": -0.17}, {"measurement": "glycan array binding signal (z-score)", "setting": "[17]", "result": -0.698}, {"measurement": "glycan array binding signal (z-score)", "setting": "[18]", "result": -0.203}, {"measurement": "glycan array binding signal (z-score)", "setting": "[19]", "result": -0.135}, {"measurement": "glycan array binding signal (z-score)", "setting": "[20]", "result": -0.791}, {"measurement": "glycan array binding signal (z-score)", "setting": "[21]", "result": -0.741}, {"measurement": "glycan array binding signal (z-score)", "setting": "[22]", "result": -1.02}, {"measurement": "glycan array binding signal (z-score)", "setting": "[23]", "result": 1.99}, {"measurement": "glycan array binding signal (z-score)", "setting": "[24]", "result": 0.608}, {"measurement": "glycan array binding signal (z-score)", "setting": "[25]", "result": -0.618}]}
